The values below come from patent publication US7723528B2, “Sulfur transfer reagents for oligonucleotide synthesis” (AM Chemicals LLC, priority 2008, dated 2010).

The series concerns solid support-bound internucleosidic phosphite triesters. The experiment in a line: Sulfur transfer in solid phase synthesis of oligonucleotide phosphorothioates. The following applies: optimized conditions.

Turning to `CCCCN(C=Nc1nc(=S)ss1)CCCC` [Compound 3, N′-(3-thioxo-3H-1,2,4-dithiazol-5-yl)-N,N-dibutylmethanimidamide], the “Contact time required for complete sulfur transfer” value (“Contact time required” below) (0.02 M solution) was found to be 2 min, the “Contact time required” value (0.05 M solution) came out at 1 min and the “Contact time required” value (0.1 M solution) is 0.5 min.
